From patent US20220267440A1
Residue numbers refer to the chain shown, from its start. No constants are given. Whether binding was seen depends on the method and setting. Some results given as binding are weak or reduced against the parent protein; the word gives no strength.

Protein sequences, listed by entry. Tags and fused reporters are not part of them. Lines headed by an entry give the natural chain unless they say otherwise; changes in a name come on top. Residues count along the entry.
UniProt Q08722: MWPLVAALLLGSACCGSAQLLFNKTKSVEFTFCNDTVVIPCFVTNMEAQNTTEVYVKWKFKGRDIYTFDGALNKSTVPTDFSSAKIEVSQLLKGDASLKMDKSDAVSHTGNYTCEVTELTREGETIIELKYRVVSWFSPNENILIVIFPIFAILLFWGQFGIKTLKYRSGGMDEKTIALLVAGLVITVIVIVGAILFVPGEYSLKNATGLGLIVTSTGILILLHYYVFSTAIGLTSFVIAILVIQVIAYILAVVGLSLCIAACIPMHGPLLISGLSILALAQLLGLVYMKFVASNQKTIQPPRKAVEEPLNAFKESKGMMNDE
native human CD47 expressed on the surface of the CCRF-CEM human tumor cell line: residues 19-323 of Q08722
recombinant human CD47 (Novoprotein cat no. C321, lot no. 0329689): residues 19-139 of Q08722

B1: anti-CD47 AlivaMab antibody 151 (antibody, IgG1, V domains shown)
VH: QVQLQESGPGLVKPSETLSLTCTVSGGSISSYYWSWIRQPPGKGLEWIGYIYYSGSTNYNPSLKSRVTISVDTSKNQFSLKLSSVTAADTAVYYCARKRKYFDYWGQGTLVTVSS
VL: DIQMTQSPSSLSASVGDRVTITCRASQGISNYLAWYQQKPGKVPKLLIYAASTLQSGVPSRFSGSGSGTDFTLTISSLQPEDVATYYCQKCNSAPFTFGPGTKVDIK
B2: anti-CD47 AlivaMab antibody 164 (antibody, IgG1, V domains shown)
VH: B1 VH with I51V, S56G, K100G, Y101T
VL: DIQMTQSPSSVSASVGDRVTITCRASQGISSWLAWYQQKPGKAPKLLIYAASSLQSGVPSRFSGSGSGTDFTLTISSLQPEDFATYFCQQANSFPLTFGGGTKVEIK
B3: anti-CD47 AlivaMab antibody 153 (antibody, IgG1, V domains shown)
VH: B1 VH with S30N, S31Y, K100S, Y101S, F102Y
VL: DIQMTQSPSAMSASVGDRVTITCRASQGISNYLAWFQQKPGKVPRRLIYAASSLQSGVPSRFSGSGSGTEFTLTISSLQPEDFATYYCLQHNSYPWTFGQGTKVEIK
B4: anti-CD47 AlivaMab antibody 87 (antibody, IgG1, V domains shown)
VH: B1 VH with S83N, K100A, Y101F, F102L
VL: B2 VL with V11L, S31N, W32Y, Y36F, L46S, S56G, R61K, F87Y, A91Y, F94Y
B5: anti-CD47 AlivaMab antibody 144 (antibody, IgG1, V domains shown)
VH: B1 VH with S56T, K100G, Y101E
VL: B2 VL with V15E, S31R, F87Y
B6: anti-CD47 AlivaMab antibody 5 (antibody, IgG1, V domains shown)
VH: B1 VH with K98G, R99K, K100G, Y101G, F102T
VL: B2 VL with F87Y, L96R, G100Q
B7: anti-CD47 AlivaMab antibody 85 (antibody, IgG1, V domains shown)
VH: QVQLQESGPGLVKASETLSLTCTVSGGSISGYYWSWIRQPAGKGLEWIGRIYNSGSTNYNPSLKSRVTMSVDTSKNQFSLKLSSVTAADTAVYYCARQTYLDYWGQGTLVTVSS
VL: B3 VL with N31I, R45K, W96L, Q100G

molecular target: recombinant human CD47 (Novoprotein cat no. C321, lot no. 0329689) (human) (UniProt Q08722); assay: SPR

Row | binding | Binder
1 | binds | B1

molecular target: native human CD47 expressed on the surface of the CCRF-CEM human tumor cell line (human) (UniProt Q08722); assay: flow cytometry on CCRF-CEM cells

Row | binding | Binder
2 | binds | B2
3 | binds | B3
4 | binds | B4
5 | binds | B5
6 | binds | B1
7 | binds | B6
8 | binds | B7

molecular target: native human CD47 expressed on the surface of the CCRF-CEM human tumor cell line (human) (UniProt Q08722); assay: flow cytometry on CCRF-CEM cells, geometric mean FL1-H

Row | binding | Binder
9 | binds | B2
10 | binds | B3
11 | binds | B4
12 | binds | B5
13 | binds | B1
14 | binds | B6
15 | binds | B7
